# Source: patent US9040516B2, “Uracil derivative and use thereof for medical purposes” (SUMITOMO DAINIPPON PHARMA CO., LTD., priority 2011, dated 2015)
# The chains behind the UniProt entries cited, without tags or fusion partners. Residues count along the entry.
# UniProt P08246, 30-267 limits assumed: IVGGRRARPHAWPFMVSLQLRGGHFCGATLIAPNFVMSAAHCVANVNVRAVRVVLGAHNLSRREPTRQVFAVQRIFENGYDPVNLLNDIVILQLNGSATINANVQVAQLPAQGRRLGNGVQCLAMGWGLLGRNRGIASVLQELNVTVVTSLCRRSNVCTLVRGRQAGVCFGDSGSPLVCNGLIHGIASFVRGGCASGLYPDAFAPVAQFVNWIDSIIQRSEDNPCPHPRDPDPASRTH
# Target: human neutrophil elastase (Homo sapiens, UniProt P08246)
# Assay: Inhibitory action 2 against human neutrophil elastase (Test Example 2; fluorogenic substrate MeOSuc-AAPV-AMC, buffer with 400 mM NaCl, 0.2 mg/ml BSA)
# Details: read-out: IC50 value (compound concentration required for 50% inhibition of human neutrophil elastase), 37° C.
# Method: Assay buffer (0.4 unit/ml HNE (human neutrophil elastase, available from Elastin Products Company), 200 mM HEPES [N-(2-hydroxyethyl)piperazine-N′-(2-ethanesulfonic acid)], pH 7.5, 400 mM NaCl, 0.2 mg/ml BSA (bovine serum albumin)) 100 μl, water for injection 20 μl and 1% DMSO (dimethyl sulfoxide) solution of the present compound 20 μl were mixed in a 96 well plate and the mixed solutions were pre-incubated at 37° C. for five minutes. After pre-incubation, MeOSuc-AAPV-AMC (methoxysuccinyl-alanyl-alanyl-prolyl-valyl-aminomethyl cumaride (available from Sigma Aldrich Corp.) solution as fluorogenic substrate (which was dissolved in 10% DMSO solution so as to adjust to 0.5 mM) 40 μl was added to the above-prepared mixed solution so as to initiate the reaction, and the mixture was incubated at 37° C. for five minutes. The fluorescence intensity of AMC was measured at an excitation wavelength of 380 nm and a fluorescence wavelength of 460 nm and the inhibition ratio was determined.
row,Structure (SMILES),IC50 [nM]
1,CCNC(=O)c1cnn(-c2ccc(C#N)cc2)c1-c1c(C)n(-c2cccc(C(F)(F)F)c2)c(=O)n(C(C)C)c1=O,6
2,CC(=O)NS(=O)(=O)c1cnn(-c2ccc(C#N)cc2)c1-c1c(C)n(-c2cccc(C(F)(F)F)c2)c(=O)n(C)c1=O,14.3
3,CCn1c(=O)c(-c2c(C(=O)N3CCOCC3)cnn2-c2ccc(C#N)cc2)c(C)n(-c2cccc(C(F)(F)F)c2)c1=O,7.9
4,Cc1c(-c2c(CC(N)=O)cnn2-c2ccc(C#N)cc2)c(=O)n(C)c(=O)n1-c1cccc(C(F)(F)F)c1,26
5,CCn1c(=O)c(-n2c(CCOC)nnc2-c2ccc(C#N)cc2)c(C)n(-c2cccc(C(F)(F)F)c2)c1=O,22.3
6,Cc1c(-c2c(S(=O)(=O)N3CCCC3)cnn2-c2ccc(C#N)cc2)c(=O)n(C)c(=O)n1-c1cccc(C(F)(F)F)c1,21.7

# The structures given here were assigned with low confidence; some may be wrong.
